Reference: the supplement of paper PMC10849652
This is one part of the list.

The chains behind the UniProt entries cited, without tags or fusion partners. Where a name states a change or a piece, a line headed by the entry shows the natural chain unless it says otherwise.
UniProt O43491, whole entry, looked up: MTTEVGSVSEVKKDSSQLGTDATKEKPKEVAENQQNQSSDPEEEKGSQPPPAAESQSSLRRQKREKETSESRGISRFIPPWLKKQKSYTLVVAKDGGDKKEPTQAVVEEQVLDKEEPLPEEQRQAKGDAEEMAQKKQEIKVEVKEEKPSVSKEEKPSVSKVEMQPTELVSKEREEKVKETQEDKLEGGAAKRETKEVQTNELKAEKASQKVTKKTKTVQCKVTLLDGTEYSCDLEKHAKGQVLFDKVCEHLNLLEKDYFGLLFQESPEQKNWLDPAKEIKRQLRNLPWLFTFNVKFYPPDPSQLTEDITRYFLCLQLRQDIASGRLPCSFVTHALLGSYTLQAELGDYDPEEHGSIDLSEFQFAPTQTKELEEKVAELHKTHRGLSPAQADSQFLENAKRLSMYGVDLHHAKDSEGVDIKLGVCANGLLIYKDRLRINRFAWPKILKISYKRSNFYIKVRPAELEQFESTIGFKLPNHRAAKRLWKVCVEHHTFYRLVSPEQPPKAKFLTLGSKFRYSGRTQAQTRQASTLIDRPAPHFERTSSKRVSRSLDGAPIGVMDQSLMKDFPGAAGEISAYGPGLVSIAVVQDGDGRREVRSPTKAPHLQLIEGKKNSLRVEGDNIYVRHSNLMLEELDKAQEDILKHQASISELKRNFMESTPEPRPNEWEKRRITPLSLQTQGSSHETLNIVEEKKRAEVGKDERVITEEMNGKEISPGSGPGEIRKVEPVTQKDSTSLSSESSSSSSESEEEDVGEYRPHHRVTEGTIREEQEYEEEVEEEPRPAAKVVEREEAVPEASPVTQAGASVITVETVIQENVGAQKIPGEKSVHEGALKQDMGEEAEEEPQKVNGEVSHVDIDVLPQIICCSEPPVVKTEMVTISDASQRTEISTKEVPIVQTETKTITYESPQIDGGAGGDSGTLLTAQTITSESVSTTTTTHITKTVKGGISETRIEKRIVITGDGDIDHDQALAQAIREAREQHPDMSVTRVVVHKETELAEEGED
UniProt Q6P2I3: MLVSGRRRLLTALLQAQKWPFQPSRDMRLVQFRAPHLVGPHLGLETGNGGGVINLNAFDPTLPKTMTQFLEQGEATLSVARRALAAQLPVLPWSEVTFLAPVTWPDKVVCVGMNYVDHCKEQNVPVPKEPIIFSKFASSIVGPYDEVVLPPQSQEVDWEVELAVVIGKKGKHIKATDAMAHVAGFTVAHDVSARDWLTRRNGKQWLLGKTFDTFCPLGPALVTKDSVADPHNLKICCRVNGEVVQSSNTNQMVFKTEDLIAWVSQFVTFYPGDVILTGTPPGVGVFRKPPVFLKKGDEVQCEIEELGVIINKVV
UniProt P00740, whole entry, looked up: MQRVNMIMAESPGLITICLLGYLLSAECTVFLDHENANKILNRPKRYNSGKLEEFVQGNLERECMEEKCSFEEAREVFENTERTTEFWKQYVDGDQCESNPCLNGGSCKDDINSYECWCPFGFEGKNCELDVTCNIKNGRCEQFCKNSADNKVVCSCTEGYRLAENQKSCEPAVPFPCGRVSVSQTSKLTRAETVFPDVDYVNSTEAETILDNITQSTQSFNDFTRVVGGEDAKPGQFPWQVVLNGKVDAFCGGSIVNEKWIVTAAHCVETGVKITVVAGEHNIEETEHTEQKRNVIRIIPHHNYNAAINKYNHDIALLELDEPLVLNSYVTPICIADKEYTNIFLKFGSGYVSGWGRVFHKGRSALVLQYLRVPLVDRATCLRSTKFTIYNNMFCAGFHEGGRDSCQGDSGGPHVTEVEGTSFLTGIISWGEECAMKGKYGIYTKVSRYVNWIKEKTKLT
UniProt Q7Z309: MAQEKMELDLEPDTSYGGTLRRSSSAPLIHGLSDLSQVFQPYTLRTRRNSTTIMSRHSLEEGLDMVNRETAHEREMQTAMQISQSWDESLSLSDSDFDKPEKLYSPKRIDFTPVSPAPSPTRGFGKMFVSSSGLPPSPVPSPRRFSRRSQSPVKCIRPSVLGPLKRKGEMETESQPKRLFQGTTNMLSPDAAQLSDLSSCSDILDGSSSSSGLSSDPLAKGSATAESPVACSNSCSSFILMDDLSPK
UniProt Q8IXS8: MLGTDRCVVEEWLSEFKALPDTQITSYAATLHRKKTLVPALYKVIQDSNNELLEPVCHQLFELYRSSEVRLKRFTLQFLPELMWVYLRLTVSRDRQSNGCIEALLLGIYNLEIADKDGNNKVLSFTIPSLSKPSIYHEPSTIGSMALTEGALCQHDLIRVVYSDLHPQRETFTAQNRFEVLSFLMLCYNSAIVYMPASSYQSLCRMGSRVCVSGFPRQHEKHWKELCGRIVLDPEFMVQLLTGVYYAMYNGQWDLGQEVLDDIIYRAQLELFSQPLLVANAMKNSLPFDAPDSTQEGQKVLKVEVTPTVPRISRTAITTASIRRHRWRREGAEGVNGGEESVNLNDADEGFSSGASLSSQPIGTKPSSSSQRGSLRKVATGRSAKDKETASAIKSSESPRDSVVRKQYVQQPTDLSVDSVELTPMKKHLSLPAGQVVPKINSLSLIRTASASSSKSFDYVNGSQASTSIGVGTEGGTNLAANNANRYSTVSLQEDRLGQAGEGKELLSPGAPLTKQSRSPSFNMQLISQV
UniProt P05160: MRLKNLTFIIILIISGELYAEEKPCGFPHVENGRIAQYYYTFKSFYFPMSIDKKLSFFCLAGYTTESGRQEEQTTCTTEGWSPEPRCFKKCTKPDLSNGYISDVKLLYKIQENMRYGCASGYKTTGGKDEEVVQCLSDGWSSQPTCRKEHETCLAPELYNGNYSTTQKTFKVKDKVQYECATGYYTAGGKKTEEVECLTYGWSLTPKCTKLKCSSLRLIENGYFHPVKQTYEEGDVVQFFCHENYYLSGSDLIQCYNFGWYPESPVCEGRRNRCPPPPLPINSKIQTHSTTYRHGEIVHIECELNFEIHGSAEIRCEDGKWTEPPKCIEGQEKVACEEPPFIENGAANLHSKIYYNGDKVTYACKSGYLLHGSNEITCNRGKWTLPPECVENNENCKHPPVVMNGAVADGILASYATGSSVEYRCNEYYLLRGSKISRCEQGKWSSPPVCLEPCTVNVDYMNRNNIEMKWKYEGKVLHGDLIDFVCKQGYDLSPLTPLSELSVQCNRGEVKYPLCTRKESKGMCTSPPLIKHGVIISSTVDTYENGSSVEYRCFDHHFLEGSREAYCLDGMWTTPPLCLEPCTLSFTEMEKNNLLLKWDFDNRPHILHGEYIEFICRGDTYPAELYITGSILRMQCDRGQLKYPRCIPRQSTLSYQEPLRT
UniProt Q9H2F5, whole entry, looked up: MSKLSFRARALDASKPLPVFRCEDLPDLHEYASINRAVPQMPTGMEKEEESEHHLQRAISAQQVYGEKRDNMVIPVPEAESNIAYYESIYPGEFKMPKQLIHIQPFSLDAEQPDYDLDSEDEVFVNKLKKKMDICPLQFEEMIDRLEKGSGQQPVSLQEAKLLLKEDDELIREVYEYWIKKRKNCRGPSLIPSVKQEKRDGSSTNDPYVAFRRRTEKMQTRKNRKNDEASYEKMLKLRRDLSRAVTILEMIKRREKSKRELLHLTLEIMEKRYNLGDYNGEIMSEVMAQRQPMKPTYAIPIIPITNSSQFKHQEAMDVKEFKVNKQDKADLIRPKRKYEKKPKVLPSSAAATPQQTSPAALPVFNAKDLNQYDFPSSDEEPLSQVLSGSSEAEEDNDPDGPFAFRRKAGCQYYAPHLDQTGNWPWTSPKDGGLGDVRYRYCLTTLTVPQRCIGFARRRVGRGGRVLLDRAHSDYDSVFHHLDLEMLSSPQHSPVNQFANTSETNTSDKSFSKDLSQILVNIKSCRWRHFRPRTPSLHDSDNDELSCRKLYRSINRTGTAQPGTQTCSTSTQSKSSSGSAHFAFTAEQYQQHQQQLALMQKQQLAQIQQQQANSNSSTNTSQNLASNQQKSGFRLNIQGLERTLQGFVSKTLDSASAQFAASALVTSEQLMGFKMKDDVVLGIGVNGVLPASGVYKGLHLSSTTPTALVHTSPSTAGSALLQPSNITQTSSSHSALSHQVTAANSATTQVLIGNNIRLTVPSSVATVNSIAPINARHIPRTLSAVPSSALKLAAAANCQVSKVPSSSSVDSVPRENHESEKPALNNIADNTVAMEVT
UniProt Q9NVM1: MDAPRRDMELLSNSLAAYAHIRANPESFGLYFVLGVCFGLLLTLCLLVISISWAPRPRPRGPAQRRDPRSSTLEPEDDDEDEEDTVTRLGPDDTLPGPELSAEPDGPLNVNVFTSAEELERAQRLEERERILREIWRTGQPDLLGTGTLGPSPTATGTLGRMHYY
UniProt Q5VUB5: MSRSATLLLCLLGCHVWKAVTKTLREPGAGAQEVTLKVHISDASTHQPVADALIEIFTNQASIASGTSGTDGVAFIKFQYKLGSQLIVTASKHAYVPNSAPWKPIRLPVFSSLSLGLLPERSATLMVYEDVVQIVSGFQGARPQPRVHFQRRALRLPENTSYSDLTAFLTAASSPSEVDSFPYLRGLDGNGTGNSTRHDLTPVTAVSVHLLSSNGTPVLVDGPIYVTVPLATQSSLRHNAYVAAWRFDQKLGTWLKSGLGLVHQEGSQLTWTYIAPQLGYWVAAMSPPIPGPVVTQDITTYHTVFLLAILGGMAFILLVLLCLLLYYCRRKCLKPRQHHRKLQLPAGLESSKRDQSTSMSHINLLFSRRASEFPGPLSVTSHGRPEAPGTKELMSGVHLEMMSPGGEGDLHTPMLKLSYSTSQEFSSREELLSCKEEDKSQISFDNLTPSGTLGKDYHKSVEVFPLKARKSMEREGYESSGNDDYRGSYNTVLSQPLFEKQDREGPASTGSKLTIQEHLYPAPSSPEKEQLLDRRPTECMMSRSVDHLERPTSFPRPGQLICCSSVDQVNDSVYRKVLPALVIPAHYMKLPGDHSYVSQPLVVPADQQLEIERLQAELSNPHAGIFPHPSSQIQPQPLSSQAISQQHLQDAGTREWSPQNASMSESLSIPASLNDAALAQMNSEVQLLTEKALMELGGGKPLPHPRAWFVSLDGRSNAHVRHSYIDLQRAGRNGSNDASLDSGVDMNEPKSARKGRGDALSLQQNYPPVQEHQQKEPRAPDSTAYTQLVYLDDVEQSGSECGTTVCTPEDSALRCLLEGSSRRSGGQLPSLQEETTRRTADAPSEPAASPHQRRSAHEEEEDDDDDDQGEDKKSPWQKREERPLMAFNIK
UniProt Q8IWE2: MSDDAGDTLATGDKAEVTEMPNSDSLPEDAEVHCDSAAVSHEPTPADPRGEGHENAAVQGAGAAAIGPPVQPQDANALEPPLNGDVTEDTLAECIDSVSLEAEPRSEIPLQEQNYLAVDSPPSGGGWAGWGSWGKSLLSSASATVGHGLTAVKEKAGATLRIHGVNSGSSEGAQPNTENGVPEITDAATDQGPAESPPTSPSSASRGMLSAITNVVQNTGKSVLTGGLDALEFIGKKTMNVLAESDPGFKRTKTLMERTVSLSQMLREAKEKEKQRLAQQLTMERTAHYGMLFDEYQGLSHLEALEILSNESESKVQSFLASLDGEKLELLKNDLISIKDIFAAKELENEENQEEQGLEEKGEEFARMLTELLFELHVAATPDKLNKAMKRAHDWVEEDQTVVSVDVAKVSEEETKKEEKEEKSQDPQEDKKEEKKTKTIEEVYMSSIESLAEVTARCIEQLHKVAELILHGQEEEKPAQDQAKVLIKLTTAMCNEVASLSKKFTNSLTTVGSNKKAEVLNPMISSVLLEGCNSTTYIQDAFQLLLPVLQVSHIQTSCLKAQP

Key:
Experiment in all cases: log2 fold change, soluble protein after heating vs DMSO (PISA); higher = thermal stabilisation; K562 cells, 10 uM, 30 min; active = over 0.2 and 3.5 SD of the protein, either way, in both replicates (recomputed)
[1] = compound: CC1=C(C=C(C=C1)NC(=O)C2=CC(=CC=C2)N(C)C)NC(=O)C3=CC=C(C=C3)O
Summary of the method: (§1)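 K562 cells at 2×10^6 cells/mL were treated for 30 min with 10 μM compound, and aliquots were heated for 3 min over 48°C-58°C before pooling. Extraction used PBS with 0.5% NP-40 at 4°C, and soluble protein was the supernatant after 21,000xg for 90 min, measured by TMTpro 16plex LC-MS/MS with channel sums equalised. Thermal stability values, relative to control samples and from duplicates, are log2 fold changes.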

[2] = compound: CC1=CC=C(C=C1)SC2=C3C=C(SC3=CN=C2)C(=O)N
Summary of the method: as §1

Nexturastat A = compound: CCCCN(Cc1ccc(C(=O)NO)cc1)C(=O)Nc1ccccc1 [Nexturastat A]
Summary of the method: as §1

vemurafenib = compound: CCCS(=O)(=O)Nc1ccc(F)c(C(=O)c2c[nH]c3ncc(-c4ccc(Cl)cc4)cc23)c1F [vemurafenib]
Summary of the method: as §1

[3] = compound: CCCS(=O)(=O)Nc1ccc(F)c(C(=O)c2c[nH]c3ncc(Cl)cc23)c1F
Summary of the method: as §1

[4] = compound: CC1=C(C=C(C=C1)NC(=O)C2=CC(=CC=C2)C(C)(C)C#N)NC3=CC4=C(C=C3)N=CN(C4=O)C
Summary of the method: as §1

givinostat = compound: CCN(CC)Cc1ccc2cc(COC(=O)Nc3ccc(C(=O)NO)cc3)ccc2c1 [givinostat]
Summary of the method: as §1

[5] = compound: CC1=NC(=CC=C1)C2=C(N=C(N2)C(C)(C)C)C3=CC4=NC=CN=C4C=C3
Summary of the method: as §1

barasertib = compound: CCN(CCCOc1ccc2c(Nc3cc(CC(=O)Nc4cccc(F)c4)[nH]n3)ncnc2c1)CCOP(=O)(O)O [barasertib]
Summary of the method: as §1

[6] = compound: CCCc1cc(C)[nH]c(=O)c1CNC(=O)c1cc(-c2ccnc(N3CCN(C)CC3)c2)cc2c1cnn2C(C)C
Summary of the method: as §1

Measured: log2 fold change

FAM102B (UniProt Q5T8I3)
inactive: [1] 0.01 | [2] -0.002 | Nexturastat A 0.004 | vemurafenib -0.129 | [3] -0.065

EPS8L2 isoform 3 (UniProt Q9H6S3)
inactive: [4] 0.123 | [1] -0.099 | Nexturastat A -0.144 | givinostat -0.02

ERCC6L (UniProt Q2NKX8)
inactive: [4] -0.064 | [1] 0.008 | [2] -0.048 | [5] -0.053 | Nexturastat A 0.348 | vemurafenib 0.107 | [3] -0.065 | barasertib -0.114

EVPL (UniProt Q92817)
inactive: [4] -0.313 | [1] -0.006 | [6] -0.119

EPS15L1 (UniProt M0QY01)
inactive: [4] 0.099 | [5] -0.004 | Nexturastat A 0.167 | vemurafenib -0.001

ERI3 (UniProt H0Y4B0)
inactive: [4] -0.142 | Nexturastat A 0.098 | givinostat 0.209 | barasertib 0.275

EPB41L2 isoform 4 (UniProt O43491)
inactive: [4] 0.337 | [2] 0.141 | [5] 0.333 | Nexturastat A -0.123 | [3] 0.118 | [6] -0.105 | barasertib -0.076

ERAL1 (UniProt O75616)
inactive: [4] 0.183 | [2] 0.054 | [5] 0.089 | Nexturastat A 0.138 | vemurafenib 0.005 | [3] 0.154 | [6] 0.01 | givinostat 0 | barasertib -0.084

EVI5 isoform 2 (UniProt O60447)
inactive: [1] -0.109 | [2] -0.078 | vemurafenib 0.133 | [3] 0.162 | givinostat 0.155

FAM193B (UniProt Q96PV7)
inactive: [4] -0.16 | [2] -0.114 | [5] -0.034 | Nexturastat A 0.054 | vemurafenib -0.114 | [3] 0.005 | barasertib 0.045

ERN1 (UniProt O75460)
inactive: [4] -0.103 | [1] 0.145 | [2] -0.034 | [5] -0.052 | Nexturastat A 0.05 | [3] 0.192 | [6] -0.075 | givinostat -0.103

FAHD2B (UniProt Q6P2I3)
inactive: [1] 0.007 | [2] 0.087 | [5] -0.029 | Nexturastat A 0.114 | [3] 0.188 | [6] 0.117 | givinostat 0.004 | barasertib -0.069

ESYT2 (UniProt H7BXI1)
inactive: [4] -0.081 | [2] -0.034 | Nexturastat A 0.156 | vemurafenib 0.133 | [3] -0.023 | [6] 0.09 | givinostat 0.009 | barasertib -0.075

Quoted from the listing (nine entries):
ERCC6L (UniProt Q2NKX8)
inactive: [4] -0.064 | [1] 0.008 | [2] -0.048 | [5] -0.053 | Nexturastat A 0.348 | vemurafenib 0.107 | [3] -0.065 | barasertib -0.114

EVPL (UniProt Q92817)
inactive: [4] -0.313 | [1] -0.006 | [6] -0.119

EPS15L1 (UniProt M0QY01)
inactive: [4] 0.099 | [5] -0.004 | Nexturastat A 0.167 | vemurafenib -0.001

ERI3 (UniProt H0Y4B0)
inactive: [4] -0.142 | Nexturastat A 0.098 | givinostat 0.209 | barasertib 0.275

EPB41L2 isoform 4 (UniProt O43491)
inactive: [4] 0.337 | [2] 0.141 | [5] 0.333 | Nexturastat A -0.123 | [3] 0.118 | [6] -0.105 | barasertib -0.076

ERAL1 (UniProt O75616)
inactive: [4] 0.183 | [2] 0.054 | [5] 0.089 | Nexturastat A 0.138 | vemurafenib 0.005 | [3] 0.154 | [6] 0.01 | givinostat 0 | barasertib -0.084

EVI5 isoform 2 (UniProt O60447)
inactive: [1] -0.109 | [2] -0.078 | vemurafenib 0.133 | [3] 0.162 | givinostat 0.155

FAM193B (UniProt Q96PV7)
inactive: [4] -0.16 | [2] -0.114 | [5] -0.034 | Nexturastat A 0.054 | vemurafenib -0.114 | [3] 0.005 | barasertib 0.045

ERN1 (UniProt O75460)
inactive: [4] -0.103 | [1] 0.145 | [2] -0.034 | [5] -0.052 | Nexturastat A 0.05 | [3] 0.192 | [6] -0.075 | givinostat -0.103

Remaining list, next part

EXOG (UniProt Q9Y2C4)
inactive: [1] -0.179 | [2] -0.186 | vemurafenib -0.162 | [3] -0.167 | [6] 0.114

EPG5 (UniProt Q9HCE0)
inactive: [4] -0.069 | [1] -0.043 | Nexturastat A -0.073

F9 (UniProt P00740)
inactive: [2] 0.076 | vemurafenib -0.093 | [3] -0.092 | barasertib -0.041

EWSR1 (UniProt H7BY36)
inactive: [2] -0.043 | Nexturastat A -0.321 | vemurafenib 0.036 | [3] -0.167 | [6] -0.104 | givinostat 0.204 | barasertib -0.097

FAAP20 isoform 2 (UniProt Q6NZ36)
inactive: Nexturastat A 0.065 | [6] -0.021

ERAP2 (UniProt Q6P179)
inactive: [2] -0.019 | Nexturastat A -0.256 | [3] -0.119 | [6] -0.021 | givinostat -0.008

EPHX2 (UniProt E5RI53)
inactive: Nexturastat A 0.029 | barasertib 0.094

FAM122B isoform 2 (UniProt Q7Z309)
inactive: [6] 0.035

F2R (UniProt P25116)
inactive: [2] 0.256 | vemurafenib -0.042 | [3] 0.199

FADS1 (UniProt F5GYH4)
inactive: [5] -0.254 | vemurafenib -0.052 | barasertib 0.024

F13A1 (UniProt P00488)
inactive: [6] -0.082 | barasertib -0.23

EPN1 isoform 3 (UniProt Q9Y6I3)
inactive: barasertib -0.15

FAM160B2 (UniProt Q86V87)
inactive: [6] 0.014

EYA3 (UniProt Q99504)
inactive: vemurafenib 0.19 | [6] 0.048

FAM107B isoform 2 (UniProt Q9H098)
inactive: Nexturastat A -0.001 | vemurafenib 0.035

EPS8L1 (UniProt Q8TE68)
inactive: Nexturastat A 0.006 | barasertib 0.077

ERMARD (UniProt Q5T6L9)
inactive: [6] -0.001

FAM110A (UniProt Q9BQ89)
inactive: Nexturastat A 0.118

FAM126B (UniProt Q8IXS8)
inactive: [2] 0.134 | [3] -0.028

FAM126A (UniProt Q9BYI3)
inactive: [1] 0.143 | Nexturastat A -0.081 | [6] 0.217 | givinostat -0.226

F13B (UniProt P05160)
inactive: vemurafenib 0.059

FAM160A2 isoform 2 (UniProt Q8N612)
inactive: [1] 0.134 | [5] 0.016 | Nexturastat A -0.066 | vemurafenib -0.164 | [6] -0.172 | barasertib 0.109

EPC1 (UniProt Q9H2F5)
inactive: [1] 0.097 | [6] 0.283

FAM117B (UniProt Q6P1L5)
inactive: [1] -0.035 | [5] -0.126 | Nexturastat A 0.394 | vemurafenib 0.043 | givinostat 0.212

FAM174A (UniProt Q8TBP5)
inactive: [5] -0.275 | vemurafenib -0.177

FAM120B (UniProt Q96EK7)
inactive: givinostat 0.108

FADS2 (UniProt O95864)
inactive: givinostat -0.177

ERICH1 (UniProt Q86X53)
inactive: [2] -0.054 | [5] -0.569 | [3] -0.189

EPB41L5 (UniProt Q9HCM4)
inactive: Nexturastat A 0.218 | givinostat 0.018

EVI2B isoform 2 (UniProt P34910)
inactive: vemurafenib 0.034

EVA1B (UniProt Q9NVM1)
inactive: [6] -0.004

FAM171A1 (UniProt Q5VUB5)
inactive: [2] -0.012 | [5] -0.159 | Nexturastat A -0.222 | vemurafenib 0.045 | [3] -0.002 | givinostat -0.035

FAM171A2 (UniProt A8MVW0)
inactive: [1] -0.228 | givinostat -0.024

FAM114A1 (UniProt Q8IWE2)
inactive: [1] -0.155 | [5] -0.014 | Nexturastat A 0.044 | [6] -0.024 | givinostat 0.045

ESRRB isoform 1 (UniProt O95718)
inactive: [5] 0.197 | vemurafenib 0.229 | givinostat -0.206 | barasertib -0.004

FAM178B (UniProt Q8IXR5)
inactive: givinostat 0.125
